The values that follow come from article PMC4479417.

Protein sequences, listed by entry. Tags and fused reporters are not part of them.
UniProt Q99570: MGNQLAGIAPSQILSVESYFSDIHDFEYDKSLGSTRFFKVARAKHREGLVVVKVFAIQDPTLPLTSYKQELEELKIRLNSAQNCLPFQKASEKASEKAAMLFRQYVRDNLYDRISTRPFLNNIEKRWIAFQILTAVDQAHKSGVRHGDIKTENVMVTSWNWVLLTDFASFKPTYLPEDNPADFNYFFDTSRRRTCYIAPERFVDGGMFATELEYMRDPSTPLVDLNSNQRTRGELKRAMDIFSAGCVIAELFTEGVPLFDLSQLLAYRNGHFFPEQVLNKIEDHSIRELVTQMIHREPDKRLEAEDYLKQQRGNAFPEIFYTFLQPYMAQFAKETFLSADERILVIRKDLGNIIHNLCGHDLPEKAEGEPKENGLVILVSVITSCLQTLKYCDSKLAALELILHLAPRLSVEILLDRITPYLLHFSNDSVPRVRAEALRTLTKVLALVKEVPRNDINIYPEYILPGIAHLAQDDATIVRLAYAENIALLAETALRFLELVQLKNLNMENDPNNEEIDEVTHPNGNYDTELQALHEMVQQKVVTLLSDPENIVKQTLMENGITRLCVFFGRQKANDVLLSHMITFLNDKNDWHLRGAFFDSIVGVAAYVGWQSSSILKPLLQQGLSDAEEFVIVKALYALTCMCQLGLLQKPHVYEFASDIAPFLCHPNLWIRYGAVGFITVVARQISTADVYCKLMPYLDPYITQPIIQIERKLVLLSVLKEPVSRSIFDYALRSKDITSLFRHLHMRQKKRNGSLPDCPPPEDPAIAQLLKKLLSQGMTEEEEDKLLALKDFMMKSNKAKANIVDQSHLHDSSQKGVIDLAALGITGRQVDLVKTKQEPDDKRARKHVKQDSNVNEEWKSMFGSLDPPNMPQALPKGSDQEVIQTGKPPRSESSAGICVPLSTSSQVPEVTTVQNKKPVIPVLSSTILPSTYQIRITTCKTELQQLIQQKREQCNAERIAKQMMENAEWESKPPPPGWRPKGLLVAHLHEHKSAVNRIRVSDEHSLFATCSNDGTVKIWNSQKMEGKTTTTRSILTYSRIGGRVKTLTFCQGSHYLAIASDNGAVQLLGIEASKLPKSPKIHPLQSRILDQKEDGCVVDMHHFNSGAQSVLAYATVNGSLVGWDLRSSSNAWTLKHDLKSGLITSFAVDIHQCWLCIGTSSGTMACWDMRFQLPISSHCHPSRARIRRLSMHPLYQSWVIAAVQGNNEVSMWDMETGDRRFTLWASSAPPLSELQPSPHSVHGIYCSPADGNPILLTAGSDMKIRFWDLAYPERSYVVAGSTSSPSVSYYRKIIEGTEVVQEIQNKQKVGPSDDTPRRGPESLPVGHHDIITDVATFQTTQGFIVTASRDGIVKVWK

No constants are given. Whether binding was seen depends on the method and setting. In cells and extracts the contact can be indirect. Some results given as binding are weak or reduced against the parent protein; the word gives no strength. Tags and fused reporters may be left off the sequences shown.

For assay [1], the target named is T1, GST-Rab5A (Canis lupus) (Canis lupus) (UniProt P18066).
T1 sequence: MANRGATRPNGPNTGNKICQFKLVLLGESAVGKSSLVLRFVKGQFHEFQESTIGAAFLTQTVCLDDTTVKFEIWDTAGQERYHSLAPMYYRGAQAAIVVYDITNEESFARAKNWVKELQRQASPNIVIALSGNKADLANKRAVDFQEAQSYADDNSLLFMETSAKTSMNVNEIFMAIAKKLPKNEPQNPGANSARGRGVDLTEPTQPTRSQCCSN
The experiment in a line: pull-down; GST-Rab5A on glutathione beads loaded with GTPγS; incubated with [35S]-labelled in vitro translated protein at 4 °C for 2 h; six washes with 20 mM Tris pH 7.4, 25 mM NaCl, 5 mM MgCl2, 0.1% NP-40, 1 mM dithiothreitol, 10 μM GTPγS; SDS-PAGE and autoradiography; only the target purified.

Assay [2] deals with T1, GST-Rab5A (Canis lupus) (Canis lupus). Description: pull-down; GST-Rab5A on glutathione beads loaded with GDP; incubated with [35S]-labelled in vitro translated protein at 4 °C for 2 h; six washes with 20 mM Tris pH 7.4, 25 mM NaCl, 5 mM MgCl2, 0.1% NP-40, 1 mM dithiothreitol, 10 μM GDP; SDS-PAGE and autoradiography; only the target purified.

With “Vps15, [35S]-labelled, in vitro translated (from UniProt Q99570 1-1358)”, the binding entry in assay [1] is given as “binds”.

B1: PI3K-C2γ, [35S]-labelled, in vitro translated (enzyme, UniProt O75747 1-1486)
chain: MAYSWQTDPNPNESHEKQYEHQEFLFVNQPHSSSQVSLGFDQIVDEISGKIPHYESEIDENTFFVPTAPKWDSTGHSLNEAHQISLNEFTSKSRELSWHQVSKAPAIGFSPSVLPKPQNTNKECSWGSPIGKHHGADDSRFSILAPSFTSLDKINLEKELENENHNYHIGFESSIPPTNSSFSSDFMPKEENKRSGHVNIVEPSLMLLKGSLQPGMWESTWQKNIESIGCSIQLVEVPQSSNTSLASFCNKVKKIRERYHAADVNFNSGKIWSTTTAFPYQLFSKTKFNIHIFIDNSTQPLHFMPCANYLVKDLIAEILHFCTNDQLLPKDHILSVCGSEEFLQNDHCLGSHKMFQKDKSVIQLHLQKSREAPGKLSRKHEEDHSQFYLNQLLEFMHIWKVSRQCLLTLIRKYDFHLKYLLKTQENVYNIIEEVKKICSVLGCVETKQITDAVNELSLILQRKGENFYQSSETSAKGLIEKVTTELSTSIYQLINVYCNSFYADFQPVNVPRCTSYLNPGLPSHLSFTVYAAHNIPETWVHSYKAFSFTCWLTYAGKKLCQVRNYRNIPDKKLFFFLVNWNETINFPLEIKSLPRESMLTVKLFGIACATNNANLLAWTCLPLFPKEKSILGSMLFSMTLQSEPPVEMITPGVWDVSQPSPVTLQIDFPATGWEYMKPDSEENRSNLEEPLKECIKHIARLSQKQTPLLLSEEKKRYLWFYRFYCNNENCSLPLVLGSAPGWDERTVSEMHTILRRWTFSQPLEALGLLTSSFPDQEIRKVAVQQLDNLLNDELLEYLPQLVQAVKFEWNLESPLVQLLLHRSLQSIQVAHRLYWLLKNAENEAYFKSWYQKLLAALQFCAGKALNDEFSKEQKLIKILGDIGERVKSASDHQRQEVLKKEIGRLEEFFQDVNTCHLPLNPALCIKGIDHDACSYFTSNALPLKITFINANPMGKNISIIFKAGDDLRQDMLVLQLIQVMDNIWLQEGLDMQMIIYRCLSTGKDQGLVQMVPDAVTLAKIHRHSGLIGPLKENTIKKWFSQHNHLKADYEKALRNFFYSCAGWCVVTFILGVCDRHNDNIMLTKSGHMFHIDFGKFLGHAQTFGGIKRDRAPFIFTSEMEYFITEGGKNPQHFQDFVELCCRAYNIIRKHSQLLLNLLEMMLYAGLPELSGIQDLKYVYNNLRPQDTDLEATSHFTKKIKESLECFPVKLNNLIHTLAQMSAISPAKSTSQTFPQESCLLSTTRSIERATILGFSKKSSNLYLIQVTHSNNETSLTEKSFEQFSKLHSQLQKQFASLTLPEFPHWWHLPFTNSDHRRFRDLNHYMEQILNVSHEVTNSDCVLSFFLSEAVQQTVEESSPVYLGEKFPDKKPKVQLVISYEDVKLTILVKHMKNIHLPDGSAPSAHVEFYLLPYPSEVRRRKTKSVPKCTDPTYNEIVVYDEVTELQGHVLMLIVKSKTVFVGAINIRLCSVPLDKEKWYPLGNSII
modifications: [35S]-labelled (Expre35S35S [35S]-Protein Labeling Mix)
Take B1: the binding entry in assay [2] and in assay [1] was “binds” throughout.
